Assay results taken from PMC3587586.
No constants are given. Whether binding was seen depends on the method and setting. Binding seen in cells or lysates may run through a third protein. Some results given as binding are weak or reduced against the parent protein; the word gives no strength.

By UniProt entry, the sequences of proteins in these tests, tags left out.
UniProt P55211: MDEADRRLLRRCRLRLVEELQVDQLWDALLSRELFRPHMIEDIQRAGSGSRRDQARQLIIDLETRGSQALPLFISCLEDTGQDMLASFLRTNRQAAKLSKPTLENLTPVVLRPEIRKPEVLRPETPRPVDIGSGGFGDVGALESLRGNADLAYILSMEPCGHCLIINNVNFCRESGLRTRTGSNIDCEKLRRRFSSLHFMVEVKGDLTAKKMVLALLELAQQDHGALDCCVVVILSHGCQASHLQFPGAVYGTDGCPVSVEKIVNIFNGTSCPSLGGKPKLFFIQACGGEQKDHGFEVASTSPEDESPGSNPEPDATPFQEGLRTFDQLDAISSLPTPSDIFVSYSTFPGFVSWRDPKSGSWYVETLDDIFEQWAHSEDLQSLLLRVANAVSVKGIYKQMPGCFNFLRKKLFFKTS

Key:
[1] = target: T1, Retinoic acid-inducible gene-I (RIG-I) (human (endogenous in CAL27 and SCC4)) (UniProt O95786); test: co-IP; lysates of CAL27 or SCC4 cells transfected with a high dose of 3p-RNA for 16 h; immunoprecipitated with anti-RIG-I antibody cross-linked to protein A-Sepharose, blotted for caspase-9
T1 sequence: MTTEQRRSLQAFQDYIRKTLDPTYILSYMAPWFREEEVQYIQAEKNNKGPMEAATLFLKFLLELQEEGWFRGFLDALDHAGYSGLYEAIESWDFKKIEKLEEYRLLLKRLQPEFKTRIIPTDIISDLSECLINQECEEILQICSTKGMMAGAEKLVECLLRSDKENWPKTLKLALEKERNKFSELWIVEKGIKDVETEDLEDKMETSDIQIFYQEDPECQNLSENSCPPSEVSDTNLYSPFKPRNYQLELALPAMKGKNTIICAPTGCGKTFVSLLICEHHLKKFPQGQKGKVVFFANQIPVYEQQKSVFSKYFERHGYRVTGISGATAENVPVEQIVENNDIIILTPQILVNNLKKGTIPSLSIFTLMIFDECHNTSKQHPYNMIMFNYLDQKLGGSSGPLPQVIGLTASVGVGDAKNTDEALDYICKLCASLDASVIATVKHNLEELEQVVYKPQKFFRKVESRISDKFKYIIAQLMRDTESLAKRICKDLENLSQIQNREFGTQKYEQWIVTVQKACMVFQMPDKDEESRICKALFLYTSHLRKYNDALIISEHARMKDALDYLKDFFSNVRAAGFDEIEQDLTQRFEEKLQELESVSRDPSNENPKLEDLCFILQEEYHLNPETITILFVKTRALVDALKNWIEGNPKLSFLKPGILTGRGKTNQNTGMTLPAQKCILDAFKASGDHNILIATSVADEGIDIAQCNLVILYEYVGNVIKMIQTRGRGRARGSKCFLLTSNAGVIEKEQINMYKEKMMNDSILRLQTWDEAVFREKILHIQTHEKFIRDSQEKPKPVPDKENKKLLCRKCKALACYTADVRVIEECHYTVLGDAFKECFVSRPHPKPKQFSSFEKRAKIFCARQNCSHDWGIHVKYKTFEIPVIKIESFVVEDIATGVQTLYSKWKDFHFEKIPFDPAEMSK

[2] = target: T1, Retinoic acid-inducible gene-I (RIG-I) (human (endogenous in CAL27 and SCC4)); test: condition: only cells transfected with a low dose of 3p-RNA; co-IP; lysates of CAL27 or SCC4 cells transfected with a low dose of 3p-RNA for 16 h; immunoprecipitated with anti-RIG-I antibody cross-linked to protein A-Sepharose, blotted for caspase-9
[3] = target: T1, Retinoic acid-inducible gene-I (RIG-I) (human (endogenous in CAL27 and SCC4)); test: condition: only cells overexpressing HA-tagged constitutively active Akt; co-IP; lysates of CAL27 cells pre-transfected with HA-tagged constitutively active Akt for 24 h, then with 3p-RNA for 16 h; immunoprecipitated with a RIG-I antibody, blotted with a caspase-9 antibody

## pro-caspase-9 (from UniProt P55211 1-416)
[1]
  binding: binds
[2]
  binding: no binding
[3]
  binding: no binding
